Patent publication US3940248A, “Method for inhibiting corrosion of metal” (Otsuka Kagaku Yakuhin Kabushiki Kaisha, priority 1972, dated 1976)

How the values were obtained:
[1] = Corrosion test, steel test pieces immersed in water with corrosive ions (Table 1); details: 100 p.p.m. inhibitor, 50 °C, 10 days, pH 7, 50 p.p.m. each Cl-, SO4--, HCO3-
[2] = Corrosion test, cast iron test pieces immersed in water with corrosive ions (Table 1); details: 500 p.p.m. inhibitor, 50 °C, 10 days, pH 7, 50 p.p.m. each Cl-, SO4--, HCO3-

Row | SMILES | Reduction of weight by corrosion [1] | Reduction of weight by corrosion [2]
1 | Cc1cc(O)c2nncn2n1 [compound 1] | 0.07 mg/cm^2 | –
2 | CCCCCCCCCCc1nn2cnnc2c(O)c1CCC [compound 2] | 0.11 mg/cm^2 | –
3 | CCCCCCc1cc(O)c2nncn2n1 [compound 3] | – | 0.15 mg/cm^2
4 | Oc1cc(Cc2ccccc2)nn2cnnc12 [compound 4] | – | 0.23 mg/cm^2
